{"source": "patent US20140323325A1", "about": "“Molecular imaging and related methods” (priority 2013, published 2014)", "test_system": "FKBP5 mRNA", "assay": "FKBP5 mRNA expression by FISH in A549 cells, minus/plus dexamethasone", "format": "cell-based, human", "details": "24 nM dexamethasone for 8 hours, standard fluorescent microscope (60×) and SAO imaging (20×)", "note": "At least one compound was matched to its structure with a doubt left."}
{"molecule": "C[C@@H]1C[C@H]2[C@@H]3CCC4=CC(=O)C=C[C@]4(C)[C@@]3(F)[C@@H](O)C[C@]2(C)[C@@]1(O)C(=O)CO", "note": "[dexamethasone]", "values": [{"measurement": "FKBP5 mRNA expression (single-molecule FISH images)", "value": "upregulation"}]}
